# System: Ovcar3-GTL catenae
# Test: Ovcar3-GTL catena drug sensitivity (proliferation, alamarBlue, 384-well)
# Conditions: IC50 day 6 / IC50 day 1
compound,measurement,value
O=C(CCCCCCC(=O)Nc1ccccc1)NO [SAHA],Increase in Resistance Day 6/Day 1,8 fold
